Laboratory results taken from article PMC3474739, “Novel Frataxin Isoforms May Contribute to the Pathological Mechanism of Friedreich Ataxia” (PLoS ONE, 2012).
Results are given in words; binding and its absence hold for the method and conditions named. In cells and extracts the contact can be indirect. Some entries that bind do so weakly or less than the wild type.

Chains of the proteins cited; added tags and fusions are not shown. Residues count along the entry.
UniProt Q9H1K1, residues 35-167: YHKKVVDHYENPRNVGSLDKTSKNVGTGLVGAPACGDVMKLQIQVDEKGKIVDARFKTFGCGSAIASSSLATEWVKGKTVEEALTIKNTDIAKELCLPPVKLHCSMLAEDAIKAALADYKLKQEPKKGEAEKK
UniProt P0A6B7: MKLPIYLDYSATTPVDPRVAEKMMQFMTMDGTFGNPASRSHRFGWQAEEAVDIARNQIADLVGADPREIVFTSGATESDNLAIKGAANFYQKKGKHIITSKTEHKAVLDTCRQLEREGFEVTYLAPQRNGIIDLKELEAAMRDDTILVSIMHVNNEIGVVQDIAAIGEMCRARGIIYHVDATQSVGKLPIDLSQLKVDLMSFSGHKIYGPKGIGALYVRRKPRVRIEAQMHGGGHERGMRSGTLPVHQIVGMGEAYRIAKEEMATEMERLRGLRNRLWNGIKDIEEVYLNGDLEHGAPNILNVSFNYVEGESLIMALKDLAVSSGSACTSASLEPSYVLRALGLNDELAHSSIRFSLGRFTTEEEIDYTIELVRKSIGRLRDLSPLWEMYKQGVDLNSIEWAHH

Molecular target: His-tagged human ISCU (human) (UniProt Q9H1K1)
Test: pull-down; His-tagged human ISCU over-expressed in E. coli BL21(DE3) or CL100(DE3) (ΔiscS), alone or co-expressed with ISCS or ISCS+ISD11; single Ni-NTA affinity step; co-purified proteins confirmed by mass spectrometry

binding: binds
Substance: endogenous IscS of E. coli (from UniProt P0A6B7 1-404)
